Reference: PMC8450433
These are yes or no findings as the source states them, for the method shown. Binding seen in cells or lysates may run through a third protein. Binding calls can cover weak binding; strength is not graded here.

Molecular target: T1, glypican 4 (mouse (endogenous in APP/PS1 mouse brain)) (UniProt P51655)
T1 sequence: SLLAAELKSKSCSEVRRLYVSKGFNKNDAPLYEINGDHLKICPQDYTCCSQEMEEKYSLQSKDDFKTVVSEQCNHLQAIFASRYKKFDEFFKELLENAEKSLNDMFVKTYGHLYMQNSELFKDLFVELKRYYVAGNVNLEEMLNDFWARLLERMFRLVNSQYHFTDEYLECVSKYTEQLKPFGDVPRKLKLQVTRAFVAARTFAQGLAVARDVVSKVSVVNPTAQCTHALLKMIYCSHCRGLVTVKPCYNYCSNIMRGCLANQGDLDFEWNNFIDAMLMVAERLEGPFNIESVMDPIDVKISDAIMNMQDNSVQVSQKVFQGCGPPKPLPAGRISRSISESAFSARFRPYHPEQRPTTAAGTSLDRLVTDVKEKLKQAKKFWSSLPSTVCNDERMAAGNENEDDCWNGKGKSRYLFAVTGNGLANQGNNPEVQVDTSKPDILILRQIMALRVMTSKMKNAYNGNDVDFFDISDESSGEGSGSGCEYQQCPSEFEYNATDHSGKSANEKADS
Experiment: co-IP; APP/PS1 mouse brain lysate (6-month-old mice, 4 mg protein, pre-cleared with protein G); IP with anti-Gpc4 antibody (1:100) and protein G beads overnight at 4°C; western blot for MOAB2 (Aβ42) and LRP1

With “low-density lipoprotein receptor-related protein 1” the binding was “binds”.
